System: NCI A549 cells
Test: Intracellular polyamine and analogue content of NCI A549 cells (HPLC)
Format: cell-based, human
Settings: NCI A549, 10 μM, 24 h
From the text: Total cellular RNA was extracted from the lung cancer cell lines using Trizol reagent (Invitrogen) according to the manufacturer's protocol. For Northern blotting, total RNA (20 lg) was separated on a denaturing 1.5% agarose gel containing 6% formaldehyde and transferred to Zetaprobe membrane (Bio-Rad). Random primer- labeled PAOh1 cDNA was used as probe to estimate PAOh1/SMO expression. Blots were stripped and reprobed with an 18S ribosomal cDNA to provide a loading control. Analysis of polyamine content, SSAT and PAOh1/SMO activity. Intracellular polyamine concentrations were determined using the precolumn dansylation labeling, reverse-phase high-pressure liquid chromatography method as described by Kabra et al. using 1,7-diaminoheptane as an internal standard. Polyamine concentrations are reported as nanomoles per milligram protein for each sample, where lysate protein content was measured by the method of Bradford. SSAT activity of cellular extracts was measured as previously described. […] The PAOh1/SMO assays were performed in the presence of 1.0 mM pargyline and 0.1 mM semicarbizide as inhibitors of monoamine oxidase (MAO) and diamine oxidase (DAO), respectively.

Row | SMILES | Analogue (intracellular accumulation)
1 | CCNCCCNCCCNCCCNCC [BENSpm, N^1,N^11-bis(ethyl)norspermine] | 49.4 ± 9.8 nmol/mg protein
2 | CCNCCCNCCCNCCCNCC1CC1 [CPENSpm, N^1-ethyl-N^11-(cyclopropyl) methyl-4,8,diazaundecane] | 17.8 ± 1.4 nmol/mg protein

Source: patent publication US20040229241A1, “Cloned mammalian polyamine oxidase” (priority 2001, published 2004)
